Test results: paper PMC3723245
These are yes or no findings as the source states them, for the method shown. Some binding calls cover weakened binding; strength is not graded here.

Sequences of proteins named here, by UniProt entry; tags and fusion partners are left off.
UniProt P27482: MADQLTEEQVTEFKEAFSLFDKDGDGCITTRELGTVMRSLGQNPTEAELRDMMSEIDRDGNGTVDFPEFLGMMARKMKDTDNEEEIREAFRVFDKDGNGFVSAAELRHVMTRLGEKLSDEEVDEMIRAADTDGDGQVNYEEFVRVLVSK

Target: Human calmodulin-like protein CALML3 (human) (UniProt P27482)
Test: two-hybrid; yeast two-hybrid screen; unpublished observation of two named persons (Bennett and Strehler); no conditions told

B1: IQ motif containing protein E (protein, UniProt Q6IPM2 1-695)
chain: MFLGTGEPALDTGDDSLSAVTFDSDVETKAKRKAFHKPPPTSPKSPYLSKPRKVASWRSLRTAGSMPLGGRASLTPQKLWLGTAKPGSLTQALNSPLTWEHAWTGVPGGTPDCLTDTFRVKRPHLRRSASNGHVPGTPVYREKEDMYDEIIELKKSLHVQKSDVDLMRTKLRRLEEENSRKDRQIEQLLDPSRGTDFVRTLAEKRPDASWVINGLKQRILKLEQQCKEKDGTISKLQTDMKTTNLEEMRIAMETYYEEVHRLQTLLASSETTGKKPLGEKKTGAKRQKKMGSALLSLSRSVQELTEENQSLKEDLDRVLSTSPTISKTQGYVEWSKPRLLRRIVELEKKLSVMESSKSHAAEPVRSHPPACLASSSALHRQPRGDRNKDHERLRGAVRDLKEERTALQEQLLQRDLEVKQLLQAKADLEKELECAREGEEERREREEVLREEIQTLTSKLQELQEMKKEEKEDCPEVPHKAQELPAPTPSSRHCEQDWPPDSSEEGLPRPRSPCSDGRRDAAARVLQAQWKVYKHKKKKAVLDEAAVVLQAAFRGHLTRTKLLASKAHGSEPPSVPGLPDQSSPVPRVPSPIAQATGSPVQEEAIVIIQSALRAHLARARHSATGKRTTTAASTRRRSASATHGDASSPPFLAALPDPSPSGPQALAPLPGDDVNSDDSDDIVIAPSLPTKNFPV
binding: binds
